Experimental data as given in publication doi:10.1101/2022.11.03.515106 (bioRxiv, 2022).
Read-outs that look alike come from different tables or passages of the source. Results are given in words; binding and its absence hold for the method and conditions named. Binding seen in cells or lysates may run through a third protein. A yes stands for co-enrichment or nearness to the bait. Other partners may have been found. No binding means not detected with the bait. Tags and fused reporters may be left off the sequences shown.

By UniProt entry, the sequences of proteins in these tests, tags left out.
UniProt Q9UNP9: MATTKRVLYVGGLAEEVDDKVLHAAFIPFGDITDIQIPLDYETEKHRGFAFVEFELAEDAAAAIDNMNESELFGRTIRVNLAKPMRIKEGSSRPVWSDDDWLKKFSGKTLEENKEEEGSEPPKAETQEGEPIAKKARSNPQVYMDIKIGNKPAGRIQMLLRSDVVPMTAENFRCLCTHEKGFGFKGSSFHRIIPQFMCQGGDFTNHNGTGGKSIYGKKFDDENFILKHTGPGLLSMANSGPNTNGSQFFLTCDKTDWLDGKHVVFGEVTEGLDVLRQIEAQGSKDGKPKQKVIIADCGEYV

T1: Flag-HA-TTDN1 (human) (UniProt Q8TAP9)
T1 sequence: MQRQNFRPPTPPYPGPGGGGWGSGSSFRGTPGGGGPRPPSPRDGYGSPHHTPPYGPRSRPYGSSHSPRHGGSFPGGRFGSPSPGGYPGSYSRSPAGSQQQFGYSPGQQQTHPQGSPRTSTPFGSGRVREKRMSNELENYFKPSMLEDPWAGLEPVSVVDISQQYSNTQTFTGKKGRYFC


Experiments:
Flag-HA-TTDN1 (human) [1] = target: T1, Flag-HA-TTDN1 (human); assay: affinity purification with mass spectrometry
Flag-HA-TTDN1 (human) [2] = target: T1, Flag-HA-TTDN1 (human); assay: affinity purification with mass spectrometry; remark: listed apart in the source

Molecule	binding (Flag-HA-TTDN1 (human) [1])	binding (Flag-HA-TTDN1 (human) [2])
PPIE (from UniProt Q9UNP9 1-301)	no binding	
endogenous DBR1 (enzyme, UniProt Q9UK59 1-544) MRVAVAGCCHGELDKIYETLALAERRGPGPVDLLLCCGDFQAVRNEADLRCMAVPPKYRHMQTFYRYYSGEKKAPVLTLFIGGNHEASNHLQELPYGGWVAPNIYYLGLAGVVKYRGVRIGGISGIFKSHDYRKGHFECPPYNSSTIRSIYHVRNIEVYKLKQLKQPIDIFLSHDWPRSIYHYGNKKQLLKTKSFFRQEVENNTLGSPAASELLEHLKPTYWFSAHLHVKFAALMQHQAKDKGQTARATKFLALDKCLPHRDFLQILEIEHDPSAPDYLEYDIEWLTILRATDDLINVTGRLWNMPENNGLHARWDYSATEEGMKEVLEKLNHDLKVPCNFSVTAACYDPSKPQTQMQLIHRINPQTTEFCAQLGIIDINVRLQKSKEEHHVCGEYEEQDDVESNDSGEDQSEYNTDTSALSSINPDEIMLDEEEDEDSIVSAHSGMNTPSVEPSDQASEFSASFSDVRILPGSMIVSSDDTVDSTIDREGKPGGTVESGNGEDLTKVPLKRLSDEHEPEQRKKIKRRNQAIYAAVDDDDDDAA		binds
ISY1 (protein, UniProt Q9ULR0 1-285) MARNAEKAMTALARFRQAQLEEGKVKERRPFLASECTELPKAEKWRRQIIGEISKKVAQIQNAGLGEFRIRDLNDEINKLLREKGHWEVRIKELGGPDYGKVGPKMLDHEGKEVPGNRGYKYFGAAKDLPGVRELFEKEPLPPPRKTRAELMKAIDFEYYGYLDEDDGVIVPLEQEYEKKLRAELVEKWKAEREARLARGEKEEEEEEEEEINIYAVTEEESDEEGSQEKGGDDSQQKFIAHVPVPSQQEIEEALVRRKKMELLQKYASETLQAQSEEARRLLGY		no binding
ZNF830 (protein, UniProt Q96NB3 1-372) MASSASARTPAGKRVINQEELRRLMKEKQRLSTSRKRIESPFAKYNRLGQLSCALCNTPVKSELLWQTHVLGKQHREKVAELKGAKEASQGSSASSAPHSVKRKAPDADDQDVKRAKATLVPQVQPSTSAWTTNFDKIGKEFIRATPSKPSGLSLLPDYEDEEEEEEEEEGDGERKRGDASKPLSDAQGKEHSVSSSREVTSSVLPNDFFSTNPPKAPIIPHSGSIEKAEIHEKVVERRENTAEALPEGFFDDPEVDARVRKVDAPKDQMDKEWDEFQKAMRQVNTISEAIVAEEDEEGRLDRQIGEIDEQIECYRRVEKLRNRQDEIKNKLKEILTIKELQKKEEENADSDDEGELQDLLSQDWRVKGALL		no binding
